From article PMC8917168 come the findings set out here.

Sequences of proteins named here, by UniProt entry; tags and fusion partners are left off. A change or cut given only in a name is not applied to a line headed by its entry. Residues count along the entry.
UniProt Q3UP24: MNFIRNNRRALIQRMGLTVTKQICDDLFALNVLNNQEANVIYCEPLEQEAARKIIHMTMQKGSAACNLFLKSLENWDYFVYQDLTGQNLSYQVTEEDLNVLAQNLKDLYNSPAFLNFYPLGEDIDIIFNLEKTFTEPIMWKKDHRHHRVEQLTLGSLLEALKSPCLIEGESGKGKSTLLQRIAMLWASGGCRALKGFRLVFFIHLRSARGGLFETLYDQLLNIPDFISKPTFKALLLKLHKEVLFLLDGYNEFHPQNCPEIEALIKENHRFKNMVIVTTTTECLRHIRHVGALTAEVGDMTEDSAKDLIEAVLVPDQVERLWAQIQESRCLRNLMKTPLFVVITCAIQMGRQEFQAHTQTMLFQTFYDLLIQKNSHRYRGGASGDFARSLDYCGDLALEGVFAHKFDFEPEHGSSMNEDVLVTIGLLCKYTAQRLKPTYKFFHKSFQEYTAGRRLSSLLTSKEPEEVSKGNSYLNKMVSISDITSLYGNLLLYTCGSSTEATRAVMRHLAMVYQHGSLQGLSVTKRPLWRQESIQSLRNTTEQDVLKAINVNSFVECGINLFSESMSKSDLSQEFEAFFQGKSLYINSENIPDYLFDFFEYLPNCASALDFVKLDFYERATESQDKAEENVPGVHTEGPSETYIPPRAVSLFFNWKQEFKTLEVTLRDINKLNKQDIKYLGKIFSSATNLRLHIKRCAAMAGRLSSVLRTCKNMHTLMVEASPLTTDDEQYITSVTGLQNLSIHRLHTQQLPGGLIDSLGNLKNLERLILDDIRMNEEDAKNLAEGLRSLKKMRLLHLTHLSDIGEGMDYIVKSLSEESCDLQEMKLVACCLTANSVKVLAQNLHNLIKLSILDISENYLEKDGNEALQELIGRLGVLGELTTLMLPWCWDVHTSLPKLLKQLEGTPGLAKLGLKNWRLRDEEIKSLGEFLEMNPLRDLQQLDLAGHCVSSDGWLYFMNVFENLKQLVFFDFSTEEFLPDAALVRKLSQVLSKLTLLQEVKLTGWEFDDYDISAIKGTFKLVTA
UniProt P28867: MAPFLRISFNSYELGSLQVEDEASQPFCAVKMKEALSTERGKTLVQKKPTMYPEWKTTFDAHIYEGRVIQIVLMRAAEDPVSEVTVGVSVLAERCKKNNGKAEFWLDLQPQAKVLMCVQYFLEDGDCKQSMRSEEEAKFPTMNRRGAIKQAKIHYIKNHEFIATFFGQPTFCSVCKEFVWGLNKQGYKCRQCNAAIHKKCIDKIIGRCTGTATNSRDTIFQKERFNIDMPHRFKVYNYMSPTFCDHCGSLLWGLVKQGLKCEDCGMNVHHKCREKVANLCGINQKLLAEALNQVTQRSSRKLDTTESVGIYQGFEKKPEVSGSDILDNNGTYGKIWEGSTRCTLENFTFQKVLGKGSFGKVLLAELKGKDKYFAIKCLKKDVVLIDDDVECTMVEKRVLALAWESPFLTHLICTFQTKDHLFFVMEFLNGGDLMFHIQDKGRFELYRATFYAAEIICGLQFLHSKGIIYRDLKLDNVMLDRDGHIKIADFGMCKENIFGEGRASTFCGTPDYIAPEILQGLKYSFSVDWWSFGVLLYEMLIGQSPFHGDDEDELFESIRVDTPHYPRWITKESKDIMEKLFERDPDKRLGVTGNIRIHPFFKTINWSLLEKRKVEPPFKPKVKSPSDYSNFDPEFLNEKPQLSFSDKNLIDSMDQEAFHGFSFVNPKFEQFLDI
UniProt Q9I788: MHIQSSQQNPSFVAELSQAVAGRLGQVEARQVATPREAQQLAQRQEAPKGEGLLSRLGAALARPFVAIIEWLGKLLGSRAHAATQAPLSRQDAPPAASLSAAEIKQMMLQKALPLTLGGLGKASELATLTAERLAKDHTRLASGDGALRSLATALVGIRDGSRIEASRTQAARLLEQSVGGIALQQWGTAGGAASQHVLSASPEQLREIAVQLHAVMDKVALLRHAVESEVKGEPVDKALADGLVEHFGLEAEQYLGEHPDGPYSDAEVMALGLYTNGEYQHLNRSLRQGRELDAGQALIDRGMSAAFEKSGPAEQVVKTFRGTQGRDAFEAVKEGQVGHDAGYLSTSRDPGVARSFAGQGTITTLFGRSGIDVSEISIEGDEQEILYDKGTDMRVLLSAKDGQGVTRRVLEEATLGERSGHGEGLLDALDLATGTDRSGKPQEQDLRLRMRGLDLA
UniProt P00520: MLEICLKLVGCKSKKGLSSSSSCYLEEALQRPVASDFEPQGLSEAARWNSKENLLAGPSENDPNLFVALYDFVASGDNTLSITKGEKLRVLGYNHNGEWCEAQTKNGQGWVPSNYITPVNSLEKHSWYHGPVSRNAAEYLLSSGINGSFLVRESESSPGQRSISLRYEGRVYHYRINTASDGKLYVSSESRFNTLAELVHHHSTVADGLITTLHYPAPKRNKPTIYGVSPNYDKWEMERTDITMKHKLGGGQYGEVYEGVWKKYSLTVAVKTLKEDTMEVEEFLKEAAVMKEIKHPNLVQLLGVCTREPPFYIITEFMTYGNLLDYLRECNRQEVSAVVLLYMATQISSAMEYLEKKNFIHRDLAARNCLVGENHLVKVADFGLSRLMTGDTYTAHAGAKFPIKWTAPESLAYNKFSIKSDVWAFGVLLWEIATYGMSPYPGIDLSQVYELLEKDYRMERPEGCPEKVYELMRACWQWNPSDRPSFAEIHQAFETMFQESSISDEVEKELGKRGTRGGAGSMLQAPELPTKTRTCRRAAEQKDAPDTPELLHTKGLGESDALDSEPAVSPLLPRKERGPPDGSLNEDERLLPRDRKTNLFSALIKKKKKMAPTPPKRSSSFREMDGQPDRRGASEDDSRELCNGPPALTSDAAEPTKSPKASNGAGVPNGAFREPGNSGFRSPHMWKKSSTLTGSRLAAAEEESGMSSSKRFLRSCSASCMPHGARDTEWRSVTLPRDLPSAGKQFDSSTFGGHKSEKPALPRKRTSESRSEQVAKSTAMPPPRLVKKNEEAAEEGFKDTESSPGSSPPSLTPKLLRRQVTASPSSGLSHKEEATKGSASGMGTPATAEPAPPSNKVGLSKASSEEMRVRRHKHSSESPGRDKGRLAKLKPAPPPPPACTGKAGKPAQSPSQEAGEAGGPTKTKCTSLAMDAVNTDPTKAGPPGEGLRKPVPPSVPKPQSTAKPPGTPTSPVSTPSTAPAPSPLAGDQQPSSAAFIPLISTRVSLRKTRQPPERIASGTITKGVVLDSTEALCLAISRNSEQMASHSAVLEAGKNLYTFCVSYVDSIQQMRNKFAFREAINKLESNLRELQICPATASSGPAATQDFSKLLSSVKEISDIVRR
CrkI isoform of Crk adaptor protein (Q64010, residues 1-204): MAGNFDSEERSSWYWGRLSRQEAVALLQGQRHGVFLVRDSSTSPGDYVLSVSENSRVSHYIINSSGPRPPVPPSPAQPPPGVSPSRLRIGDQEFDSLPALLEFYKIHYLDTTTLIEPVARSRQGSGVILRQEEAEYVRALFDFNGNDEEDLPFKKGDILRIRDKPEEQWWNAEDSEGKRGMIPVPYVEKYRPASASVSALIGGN

Results are given in words; binding and its absence hold for the method and conditions named. In cells and extracts the contact can be indirect. Some entries that bind do so weakly or less than the wild type.

Experiment [1] has as its target NLRC4 (mouse (endogenous in BMDMs from C57BL/6)) (UniProt Q3UP24). As to the kind of experiment: co-IP; endogenous proteins; BMDMs from C57BL/6 infected with P. aeruginosa at M.O.I. of 20 for 2 h; whole-cell lysates immunoprecipitated with antibodies against NLRC4, PKCδ or Abl and immunoblotted (Fig. 6a).
In experiment [2] the target is PKCδ kinase (mouse (endogenous in BMDMs from C57BL/6)) (UniProt P28867). The experiment is described as above.
The next experiment deals with ExoT-GFP (P. aeruginosa) (UniProt Q9I788). The experiment in a line: co-IP; BMDMs pretreated with Z-VAD (60 µM), transfected with GFP fusions of ExoT for about 24 h, then treated with PBS (uninfected) or infected with the ∆U∆T strain for 2 h; whole-cell lysates immunoprecipitated with antibodies against GFP (bait) and immunoblotted. A general note: Immunoblotting shows a protein as a band on a membrane.

Experiment [3] concerns the target PKCδ kinase (mouse (endogenous in BMDMs from C57BL/6)) (UniProt P28867). As to the kind of experiment: co-IP; endogenous proteins; BMDMs from C57BL/6 infected with ExoT-deleted or ExoT-expressing P. aeruginosa strains for 2 h; whole-cell lysates and supernatants immunoprecipitated with antibodies against NLRC4, PKCδ, Crk or Abl and immunoblotted (Fig. 6l).
Experiment [4] deals with Abl tyrosine kinase (mouse (endogenous in BMDMs from C57BL/6)) (UniProt P00520). The description is as above.
For experiment [5] the target is unchanged. The experiment in a line: co-IP; endogenous proteins; BMDMs from C57BL/6 infected with P. aeruginosa at M.O.I. of 20 for 2 h; whole-cell lysates immunoprecipitated with antibodies against NLRC4, PKCδ or Abl and immunoblotted (Fig. 6a).
Experiment [6] shares this target. As to the kind of experiment: co-IP; as a1, but BMDMs without infection (Fig. 6a).

On to “PKCδ kinase (from UniProt P28867 1-674) (enzyme)”, for which the binding entry in experiment [1] is “binds”.
With “CrkI isoform of Crk adaptor protein (from UniProt Q64010-2 1-204)”, the binding result is given as “no binding” in experiment [1], “no binding” in experiment [2] and “binds” in the experiment with ExoT-GFP (P. aeruginosa).
On to NLRC4 (from UniProt Q3UP24 1-1024), for which the binding entry in experiment [3] and in experiment [2] was “binds” each time.
On to “Abl tyrosine kinase (from UniProt P00520 1-1123) (enzyme)”, for which the binding entry is reported as “binds” in experiment [3], “no binding” in experiment [1] and “binds” in experiment [2].
On to “CrkII isoform of Crk adaptor protein (from UniProt Q64010-1 1-304)”, for which the binding entry in experiment [4] is “binds”; in experiment [1], “no binding”; in experiment [2], “no binding”; in experiment [5] it was “binds”; in experiment [6], “no binding (condition: cells without infection)”; with ExoT-GFP (P. aeruginosa), “binds”.
